# Test results published in the supplement of paper PMC10849652.
# Protein sequences, listed by entry. Tags and fused reporters are not part of them. Lines headed by an entry give the natural chain unless they say otherwise; changes in a name come on top.
# UniProt Q9Y219: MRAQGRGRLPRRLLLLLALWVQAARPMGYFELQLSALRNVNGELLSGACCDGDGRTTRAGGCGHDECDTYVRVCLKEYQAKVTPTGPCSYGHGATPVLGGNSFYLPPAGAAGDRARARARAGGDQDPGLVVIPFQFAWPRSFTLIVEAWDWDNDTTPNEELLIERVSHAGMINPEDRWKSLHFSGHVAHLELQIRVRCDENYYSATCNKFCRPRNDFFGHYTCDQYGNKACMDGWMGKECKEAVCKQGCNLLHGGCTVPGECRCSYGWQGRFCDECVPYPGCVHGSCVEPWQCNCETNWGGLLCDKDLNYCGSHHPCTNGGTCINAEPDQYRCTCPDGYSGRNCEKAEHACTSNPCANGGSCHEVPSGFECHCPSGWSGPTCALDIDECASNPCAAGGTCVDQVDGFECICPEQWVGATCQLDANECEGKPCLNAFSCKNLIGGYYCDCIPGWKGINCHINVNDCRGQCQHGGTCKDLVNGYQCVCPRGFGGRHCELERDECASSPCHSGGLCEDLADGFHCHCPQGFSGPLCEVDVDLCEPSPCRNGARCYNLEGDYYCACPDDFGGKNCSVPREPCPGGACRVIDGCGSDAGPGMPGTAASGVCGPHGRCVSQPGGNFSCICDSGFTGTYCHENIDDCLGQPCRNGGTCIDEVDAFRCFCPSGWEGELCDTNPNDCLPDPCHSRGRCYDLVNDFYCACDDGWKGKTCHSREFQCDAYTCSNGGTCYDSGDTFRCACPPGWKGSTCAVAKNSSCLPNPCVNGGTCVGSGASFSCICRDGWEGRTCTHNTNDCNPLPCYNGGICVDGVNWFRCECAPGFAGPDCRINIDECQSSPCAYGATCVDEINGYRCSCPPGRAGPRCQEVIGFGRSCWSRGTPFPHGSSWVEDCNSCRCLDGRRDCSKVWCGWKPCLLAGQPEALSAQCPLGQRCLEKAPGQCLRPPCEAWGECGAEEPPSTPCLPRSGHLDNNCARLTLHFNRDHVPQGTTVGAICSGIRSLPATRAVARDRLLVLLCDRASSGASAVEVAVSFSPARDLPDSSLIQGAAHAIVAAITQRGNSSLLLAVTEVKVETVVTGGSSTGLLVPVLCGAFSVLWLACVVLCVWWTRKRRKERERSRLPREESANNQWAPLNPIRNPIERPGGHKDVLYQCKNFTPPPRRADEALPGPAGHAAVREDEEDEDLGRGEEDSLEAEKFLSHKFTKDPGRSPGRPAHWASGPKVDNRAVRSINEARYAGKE
# UniProt P38570: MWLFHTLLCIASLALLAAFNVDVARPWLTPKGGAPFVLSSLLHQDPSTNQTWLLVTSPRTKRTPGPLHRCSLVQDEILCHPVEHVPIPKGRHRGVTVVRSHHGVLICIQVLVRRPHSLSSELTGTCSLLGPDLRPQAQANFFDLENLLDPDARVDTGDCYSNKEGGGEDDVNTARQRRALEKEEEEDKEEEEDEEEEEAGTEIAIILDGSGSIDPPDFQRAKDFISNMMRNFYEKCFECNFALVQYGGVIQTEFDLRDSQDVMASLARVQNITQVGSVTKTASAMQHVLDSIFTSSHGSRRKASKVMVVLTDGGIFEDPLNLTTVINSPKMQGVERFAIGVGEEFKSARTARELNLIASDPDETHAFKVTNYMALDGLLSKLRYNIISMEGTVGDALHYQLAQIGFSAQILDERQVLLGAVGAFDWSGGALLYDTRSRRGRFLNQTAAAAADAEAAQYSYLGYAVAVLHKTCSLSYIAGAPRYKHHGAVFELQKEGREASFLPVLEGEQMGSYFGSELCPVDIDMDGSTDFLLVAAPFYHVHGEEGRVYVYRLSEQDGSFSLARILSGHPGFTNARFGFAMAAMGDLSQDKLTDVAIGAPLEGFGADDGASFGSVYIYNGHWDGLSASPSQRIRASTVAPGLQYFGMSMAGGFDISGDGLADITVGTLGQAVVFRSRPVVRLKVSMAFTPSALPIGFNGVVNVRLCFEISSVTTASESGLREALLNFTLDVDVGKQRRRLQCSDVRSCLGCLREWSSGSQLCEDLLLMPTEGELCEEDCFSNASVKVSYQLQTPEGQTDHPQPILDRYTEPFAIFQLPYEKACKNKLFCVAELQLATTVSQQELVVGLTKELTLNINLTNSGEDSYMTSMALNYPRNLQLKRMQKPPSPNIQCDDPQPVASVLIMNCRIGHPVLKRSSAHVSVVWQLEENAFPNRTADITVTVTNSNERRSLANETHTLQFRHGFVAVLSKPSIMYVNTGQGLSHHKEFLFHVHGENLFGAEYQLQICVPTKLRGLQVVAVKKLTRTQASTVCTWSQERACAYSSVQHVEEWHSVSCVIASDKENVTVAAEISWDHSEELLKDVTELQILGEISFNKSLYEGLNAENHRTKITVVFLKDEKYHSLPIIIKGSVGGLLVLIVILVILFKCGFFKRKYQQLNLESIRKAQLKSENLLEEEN
# UniProt Q8WYB5, whole entry, looked up: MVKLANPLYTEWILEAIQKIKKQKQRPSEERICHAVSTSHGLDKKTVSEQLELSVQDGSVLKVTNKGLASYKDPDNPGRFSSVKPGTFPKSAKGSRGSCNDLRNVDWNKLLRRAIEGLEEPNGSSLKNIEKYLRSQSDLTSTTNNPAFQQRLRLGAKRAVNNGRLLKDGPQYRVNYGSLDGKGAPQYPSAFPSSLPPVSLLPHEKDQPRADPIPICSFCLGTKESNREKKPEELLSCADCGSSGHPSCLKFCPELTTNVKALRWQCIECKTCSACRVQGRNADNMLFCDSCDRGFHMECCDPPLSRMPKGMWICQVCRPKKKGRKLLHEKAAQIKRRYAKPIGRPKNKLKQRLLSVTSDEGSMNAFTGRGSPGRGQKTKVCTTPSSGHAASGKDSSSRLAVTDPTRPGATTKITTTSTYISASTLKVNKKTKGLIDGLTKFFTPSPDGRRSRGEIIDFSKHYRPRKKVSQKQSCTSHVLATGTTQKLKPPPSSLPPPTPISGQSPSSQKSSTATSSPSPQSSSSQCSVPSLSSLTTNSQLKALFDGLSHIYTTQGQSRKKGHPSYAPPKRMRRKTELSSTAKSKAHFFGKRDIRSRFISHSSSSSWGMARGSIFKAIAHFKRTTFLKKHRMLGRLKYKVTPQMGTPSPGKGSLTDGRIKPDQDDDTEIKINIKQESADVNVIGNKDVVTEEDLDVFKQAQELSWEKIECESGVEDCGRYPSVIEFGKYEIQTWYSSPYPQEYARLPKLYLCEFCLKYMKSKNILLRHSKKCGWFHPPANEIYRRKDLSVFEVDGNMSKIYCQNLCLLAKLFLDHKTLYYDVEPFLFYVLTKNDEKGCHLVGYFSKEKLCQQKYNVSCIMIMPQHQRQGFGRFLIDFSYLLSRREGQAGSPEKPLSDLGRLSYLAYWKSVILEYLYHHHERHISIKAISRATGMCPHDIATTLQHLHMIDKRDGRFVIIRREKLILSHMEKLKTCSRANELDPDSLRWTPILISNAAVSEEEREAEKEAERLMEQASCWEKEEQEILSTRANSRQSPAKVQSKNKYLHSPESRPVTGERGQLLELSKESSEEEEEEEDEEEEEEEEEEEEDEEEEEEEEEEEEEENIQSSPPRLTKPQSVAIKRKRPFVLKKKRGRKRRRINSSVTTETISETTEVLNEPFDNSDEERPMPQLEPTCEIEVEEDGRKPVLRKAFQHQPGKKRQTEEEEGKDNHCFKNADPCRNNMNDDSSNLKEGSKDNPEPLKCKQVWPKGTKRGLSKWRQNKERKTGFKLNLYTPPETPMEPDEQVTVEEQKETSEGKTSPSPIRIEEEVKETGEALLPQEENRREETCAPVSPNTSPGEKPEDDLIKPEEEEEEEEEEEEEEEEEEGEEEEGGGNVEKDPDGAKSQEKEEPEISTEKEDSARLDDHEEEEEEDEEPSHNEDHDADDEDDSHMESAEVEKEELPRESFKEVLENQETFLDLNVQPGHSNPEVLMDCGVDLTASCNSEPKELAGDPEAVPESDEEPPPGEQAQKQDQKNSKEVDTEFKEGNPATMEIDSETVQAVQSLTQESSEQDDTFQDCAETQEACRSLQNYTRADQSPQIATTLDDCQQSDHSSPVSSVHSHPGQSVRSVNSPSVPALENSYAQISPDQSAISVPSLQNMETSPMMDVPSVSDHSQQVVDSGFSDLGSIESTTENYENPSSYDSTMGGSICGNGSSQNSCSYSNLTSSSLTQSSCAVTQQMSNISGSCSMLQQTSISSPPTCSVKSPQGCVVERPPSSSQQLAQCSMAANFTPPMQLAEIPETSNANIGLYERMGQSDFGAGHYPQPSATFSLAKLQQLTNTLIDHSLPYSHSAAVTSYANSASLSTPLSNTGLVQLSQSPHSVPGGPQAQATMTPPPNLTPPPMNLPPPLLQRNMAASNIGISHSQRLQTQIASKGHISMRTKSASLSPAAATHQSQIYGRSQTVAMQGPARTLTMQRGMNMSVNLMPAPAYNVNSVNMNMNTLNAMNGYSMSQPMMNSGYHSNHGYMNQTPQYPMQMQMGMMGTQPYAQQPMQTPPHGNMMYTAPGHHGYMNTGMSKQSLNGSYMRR
# UniProt Q8NAX2: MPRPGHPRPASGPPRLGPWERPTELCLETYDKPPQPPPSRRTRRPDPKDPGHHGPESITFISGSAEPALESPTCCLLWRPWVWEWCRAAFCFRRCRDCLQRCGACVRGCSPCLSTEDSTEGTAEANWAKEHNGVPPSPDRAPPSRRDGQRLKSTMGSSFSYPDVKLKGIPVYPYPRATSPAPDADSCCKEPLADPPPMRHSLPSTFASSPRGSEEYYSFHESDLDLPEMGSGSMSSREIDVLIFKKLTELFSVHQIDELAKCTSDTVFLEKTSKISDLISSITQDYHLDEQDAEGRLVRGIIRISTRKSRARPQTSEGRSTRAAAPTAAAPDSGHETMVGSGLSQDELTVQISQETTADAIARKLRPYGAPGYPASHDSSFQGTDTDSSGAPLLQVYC
# UniProt P19823: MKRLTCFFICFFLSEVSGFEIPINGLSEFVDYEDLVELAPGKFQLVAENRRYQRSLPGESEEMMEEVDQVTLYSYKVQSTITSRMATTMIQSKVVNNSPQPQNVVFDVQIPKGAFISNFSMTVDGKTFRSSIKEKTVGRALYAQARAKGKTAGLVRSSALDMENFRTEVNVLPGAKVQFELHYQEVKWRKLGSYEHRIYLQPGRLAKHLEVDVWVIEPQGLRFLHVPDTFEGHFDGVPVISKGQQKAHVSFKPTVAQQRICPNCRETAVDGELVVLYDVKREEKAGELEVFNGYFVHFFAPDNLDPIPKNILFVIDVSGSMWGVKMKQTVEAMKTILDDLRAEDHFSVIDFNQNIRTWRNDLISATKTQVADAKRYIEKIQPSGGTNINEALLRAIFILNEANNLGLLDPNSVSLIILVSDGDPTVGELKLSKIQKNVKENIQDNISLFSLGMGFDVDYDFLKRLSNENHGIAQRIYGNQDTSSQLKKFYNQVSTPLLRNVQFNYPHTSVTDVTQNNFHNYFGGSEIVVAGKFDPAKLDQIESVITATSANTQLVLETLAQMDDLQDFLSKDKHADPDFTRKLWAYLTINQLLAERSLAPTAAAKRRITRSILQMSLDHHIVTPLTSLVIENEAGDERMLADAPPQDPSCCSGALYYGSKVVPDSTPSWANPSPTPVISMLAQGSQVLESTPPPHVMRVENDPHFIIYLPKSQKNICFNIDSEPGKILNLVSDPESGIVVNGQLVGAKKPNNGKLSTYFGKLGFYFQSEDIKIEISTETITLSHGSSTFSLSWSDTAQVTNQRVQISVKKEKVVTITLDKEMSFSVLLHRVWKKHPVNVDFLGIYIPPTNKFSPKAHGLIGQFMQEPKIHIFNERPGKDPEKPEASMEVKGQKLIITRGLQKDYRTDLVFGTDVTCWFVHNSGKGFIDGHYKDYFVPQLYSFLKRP
# UniProt Q9H9V9: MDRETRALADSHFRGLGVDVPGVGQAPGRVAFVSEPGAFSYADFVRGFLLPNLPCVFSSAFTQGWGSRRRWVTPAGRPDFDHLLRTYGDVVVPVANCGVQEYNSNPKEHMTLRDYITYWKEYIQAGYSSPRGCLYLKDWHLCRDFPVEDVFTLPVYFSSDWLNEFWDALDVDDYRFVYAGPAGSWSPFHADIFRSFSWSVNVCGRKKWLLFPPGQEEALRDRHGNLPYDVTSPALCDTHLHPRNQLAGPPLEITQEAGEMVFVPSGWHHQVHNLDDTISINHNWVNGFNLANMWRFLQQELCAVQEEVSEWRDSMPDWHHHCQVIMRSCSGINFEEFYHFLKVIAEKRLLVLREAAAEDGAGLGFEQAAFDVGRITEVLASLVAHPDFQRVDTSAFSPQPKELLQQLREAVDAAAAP
# UniProt Q96MP8: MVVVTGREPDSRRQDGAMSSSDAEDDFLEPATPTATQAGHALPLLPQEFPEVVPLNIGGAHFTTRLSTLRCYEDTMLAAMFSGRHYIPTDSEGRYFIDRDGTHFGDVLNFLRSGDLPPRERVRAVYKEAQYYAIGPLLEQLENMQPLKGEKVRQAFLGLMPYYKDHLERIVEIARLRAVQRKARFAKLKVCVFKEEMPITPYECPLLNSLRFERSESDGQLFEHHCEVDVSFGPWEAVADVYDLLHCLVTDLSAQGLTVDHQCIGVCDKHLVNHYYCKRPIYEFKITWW
# The other results are listed elsewhere or left out.
# Compound: CS(=O)(=O)N1CCN(Cc2cc3nc(-c4cccc5[nH]ncc45)nc(N4CCOCC4)c3s2)CC1 [pictilisib]
# Assay: log2 fold change, soluble protein after heating vs DMSO (PISA); higher = thermal stabilisation; K562 lysate, 10 uM; active = over 0.2 and 3.5 SD of the protein, either way, in both replicates (recomputed)
# Procedure, shortened: (§1)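 K562 pellets were dounce-homogenised in PBS pH 7.4 with 1 mM MgCl2, and the crude extract at 1 mg/mL protein was treated with 10 μM compound for 30 min. Aliquots were heated for 3 min across 48°C-58°C, pooled, and brought to 0.5% NP-40 at 4°C; soluble protein was the supernatant after 21,000xg for 90 min. Soluble protein was quantified by TMTpro 16plex LC-MS/MS with channel sums equalised, and reported as log2 fold change in thermal stability against DMSO controls, with values from duplicates.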
row,Target,log2 fold change
1,JAG2 (UniProt Q9Y219),inactive: -0.035
2,KCNK1 (UniProt O00180),inactive: 0.016
3,KCMF1 (UniProt Q9P0J7),inactive: -0.038
4,ITGAE (UniProt P38570),inactive: 0.047
5,JTB (UniProt O76095),inactive: 0.089
6,KDM3B (UniProt Q7LBC6),inactive: -0.012
7,KDM1B (UniProt Q8NB78),inactive: -0.023
8,ITM2C (UniProt Q9NQX7),inactive: -0.109
9,IRS2 (UniProt Q9Y4H2),inactive: 0.023
10,KAT6B (UniProt Q8WYB5),inactive: -0.076
11,IQGAP3 (UniProt Q86VI3),inactive: 0.025
12,ITPR1 (UniProt Q14643),inactive: 0.009
13,IQUB (UniProt Q8NA54),inactive: -0.185
14,JAGN1 (UniProt Q8N5M9),inactive: 0
15,IQGAP1 (UniProt P46940),inactive: 0.006
16,JAK3 (UniProt P52333),inactive: 0.01
17,IP6K1 (UniProt Q92551),inactive: 0.11
18,ITPRID2 (UniProt P28290),inactive: 0.03
19,JMJD7 (UniProt P0C870),inactive: 0.102
20,KBTBD7 (UniProt Q8WVZ9),inactive: -0.195
21,KCNK5 (UniProt O95279),inactive: -0.078
22,IQCD (UniProt Q96DY2),inactive: -0.403
23,KDF1 (UniProt Q8NAX2),inactive: -0.208
24,ITIH2 (UniProt P19823),inactive: -0.032
25,JMJD4 (UniProt Q9H9V9),inactive: -0.064
26,KDELR1 (UniProt P24390),inactive: 0.103
27,KAT14 (UniProt Q9H8E8),inactive: 0.051
28,ITM2A (UniProt O43736),inactive: -0.104
29,ITGB1BP1 (UniProt O14713),inactive: 0.085

# Compound: C[C@@H](Oc1cc(-c2cnn(C3CCNCC3)c2)cnc1N)c1c(Cl)ccc(F)c1Cl [crizotinib]
# Assay: as above
# Procedure, shortened: as §1
row,Target,log2 fold change
1,KCTD7 (UniProt Q96MP8),inactive: 0.134
2,JAG2 (UniProt Q9Y219),inactive: 0.052
3,KCMF1 (UniProt Q9P0J7),inactive: -0.022
4,KAT2A (UniProt Q92830),inactive: -0.093
5,JTB (UniProt O76095),inactive: 0.038
6,KDM3B (UniProt Q7LBC6),inactive: -0.002
7,KDM1B (UniProt Q8NB78),inactive: -0.081
8,JUN (UniProt P05412),inactive: -0.125
9,ITM2C (UniProt Q9NQX7),inactive: 0.143
10,ITGA2B (UniProt P08514),inactive: -0.073
11,IRS2 (UniProt Q9Y4H2),inactive: -0.186
12,KAT6B (UniProt Q8WYB5),inactive: -0.226
13,IQGAP3 (UniProt Q86VI3),inactive: -0.049
14,IST1 isoform 2 (UniProt P53990),inactive: 0.048
15,ITPR1 (UniProt Q14643),inactive: -0.122
16,ITPR3 (UniProt Q14573),inactive: -0.288
17,JAGN1 (UniProt Q8N5M9),inactive: -0.004
18,IQGAP1 (UniProt P46940),inactive: -0.016
19,JAK3 (UniProt P52333),inactive: 0.051
20,IP6K1 (UniProt Q92551),inactive: -0.02
21,KBTBD7 (UniProt Q8WVZ9),inactive: 0.007
22,KCNK5 (UniProt O95279),inactive: 0.089
23,KDF1 (UniProt Q8NAX2),inactive: -0.118
24,ITIH2 (UniProt P19823),inactive: 0.009
25,KCNN4 (UniProt O15554),inactive: 0.077
26,KATNBL1 (UniProt Q9H079),inactive: -0.066
27,JMJD4 (UniProt Q9H9V9),inactive: 0.035
28,KDELR3 (UniProt O43731),inactive: 0.209
29,KDELR1 (UniProt P24390),inactive: -0.013
